Source: PubChem BioAssay AID1053208 (Peter MacCallum Cancer Centre, 2014)
Screen: 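Find knock-downs that sensitise mouse osteosarcoma cells to doxorubicin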 (primary screen). Cells: mouse osteosarcoma cells, early-passage culture from an engineered mouse model of fibroblastic bone tumour. Reagents: siRNA pool against mouse genes, 40 nM. Duration: about 120 h (48 h before drug, then 72 h with drug). Challenge: doxorubicin 100 nM for 72 h, roughly 30-40% inhibitory dose. Measurement: 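Viability read as ATP luminescence after 72 h of 100 nM doxorubicin or none, duplicate wells averaged, scaled to non-targeting siRNA, then expressed as robust z-scores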. Direction: viability z-score with doxorubicin: higher = more viable cells under doxorubicin; viability z-score without drug: higher = more viable cells with knock-down alone. Call rule: 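Called active if knock-down leaves viability unchanged without drug (z within -2 to 2) but lowers it with doxorubicin (z at or under -2)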.
The deposit covers about 17,000 reagents; shown is a part drawn at random. 788 of all reagents (4.7%) count as active. 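Calls rest on z-score classes alone; an extra cut-off of viability at most 70% of control was not applied to them.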 Unmarked entries are inactive. Not all columns of the deposit are shown.

Gene | combined z-score class | viability z-score with doxorubicin | viability z-score without drug
Gabpa (GA repeat binding protein, alpha) | low cell count with doxorubicin only (active) | -3.15 | -1.18
Zfp459 (zinc finger protein 459) | high cell count without drug only | 0.9 | 2.36
Tmem50b (transmembrane protein 50B) | no change with or without drug | -1.57 | -1.18
S1pr5 (sphingosine-1-phosphate receptor 5) | low cell count with and without drug | -2.7 | -2.53
Sil1 (SIL1 nucleotide exchange factor) | no change with or without drug | -1.8 | -0.17
Ddx24 (DEAD box helicase 24) | no change with or without drug | 0 | 0.51
Rad54l2 (RAD54 like 2 (S. cerevisiae)) | no change with or without drug | -0.67 | -0.84
Bmerb1 (bMERB domain containing 1) | no change with or without drug | -0.9 | -1.18
Nrn1l (neuritin 1-like) | no change with or without drug | 1.69 | 0.84
Rassf4 (Ras association (RalGDS/AF-6) domain family member 4) | high cell count without drug only | 0.9 | 2.53
Sack1g (scaffolding CK1 anchoring protein G) | high cell count without drug only | -1.69 | 2.19
Chek2 (checkpoint kinase 2) | no change with or without drug | -0.45 | -0.17
Clca3b (chloride channel accessory 3B) | no change with or without drug | -1.8 | -0.51
Prnp (prion protein) | no change with or without drug | 0.45 | -0.17
Atg5 (autophagy related 5) | no change with or without drug | -0.45 | 0.17
Or4f58 (olfactory receptor family 4 subfamily F member 58) | low cell count with doxorubicin only (active) | -2.14 | -1.35

Limited to “viability z-score without drug”, for 5 of the entries above:
Nrn1l (neuritin 1-like)	0.84
Rassf4 (Ras association (RalGDS/AF-6) domain family member 4)	2.53
Sack1g (scaffolding CK1 anchoring protein G)	2.19
Chek2 (checkpoint kinase 2)	-0.17
Clca3b (chloride channel accessory 3B)	-0.51

Continued.
Gene | combined z-score class | viability z-score with doxorubicin | viability z-score without drug
Ttc7 (tetratricopeptide repeat domain 7) | low cell count with doxorubicin only (active) | -2.25 | -1.18
Or51a5 (olfactory receptor family 51 subfamily A member 5) | no change with or without drug | -0.22 | 0.17
Aifm3 (apoptosis-inducing factor, mitochondrion-associated 3) | no change with or without drug | 0.34 | 1.18
Mzb1 (marginal zone B and B1 cell-specific protein 1) | no change with or without drug | -1.35 | 1.52
BC005537 (cDNA sequence BC005537) | no change with or without drug | -0.79 | -0.51
Slc4a10 | no change with or without drug | -0.67 | -0.17
Sema3b | no change with or without drug | 0.11 | 0.84
Trafd1 (TRAF type zinc finger domain containing 1) | no change with or without drug | -0.34 | 1.18
Slc47a1 | no change with or without drug | -0.22 | 0.51
Gpm6a (glycoprotein m6a) | no change with or without drug | -0.67 | 0.17
Magel2 (MAGE family member L2) | no change with or without drug | -0.22 | 0.84
Haspin (histone H3 associated protein kinase) | no change with or without drug | -0.67 | -0.51
Sftpa1 (surfactant associated protein A1) | no change with or without drug | -0.67 | -0.34
Slc1a1 | no change with or without drug | 0.11 | -0.84
Teddm3 (transmembrane epididymal family member 3) | no change with or without drug | -0.22 | 1.52
Yme1l1 (YME1-like 1 (S. cerevisiae)) | no change with or without drug | -0.79 | -0.51
Lzts3 (leucine zipper, putative tumor suppressor family member 3) | no change with or without drug | 0.67 | 0.84
Or8g27 (olfactory receptor family 8 subfamily G member 27) | no change with or without drug | -1.57 | -1.18
Abca16 (ATP-binding cassette, sub-family A member 16) | no change with or without drug | 1.12 | 0.51
5430414B19Rik (RIKEN cDNA 5430414B19 gene) | no change with or without drug | -1.57 | 0
Ninl (ninein-like) | high cell count without drug only | -0.45 | 2.19
Cox6b2 (cytochrome c oxidase subunit 6B2) | no change with or without drug | -0.9 | -1.18
Gm16897 (predicted gene, 16897) | no change with or without drug | 1.01 | 0.84
Or4k42 (olfactory receptor family 4 subfamily K member 42) | no change with or without drug | 0.9 | 1.85
D6Ertd160e (DNA segment, Chr 6, ERATO Doi 160, expressed) | no change with or without drug | -0.67 | 0.51
Osr2 (odd-skipped related 2) | no change with or without drug | -1.8 | -1.52
Igsf5 (immunoglobulin superfamily, member 5) | no change with or without drug | -0.67 | -0.17
Hsd17b7 (hydroxysteroid (17-beta) dehydrogenase 7) | no change with or without drug | 1.12 | -0.34
Aqp8 (aquaporin 8) | no change with or without drug | -1.35 | -1.18
Cnpy3 (canopy FGF signaling regulator 3) | no change with or without drug | -1.57 | -1.01
Cps1 (carbamoyl-phosphate synthetase 1) | no change with or without drug | -0.34 | -0.17
Hycc2 (hyccin PI4KA lipid kinase complex subunit 2) | no change with or without drug | -0.67 | -0.51
Arhgef10l (Rho guanine nucleotide exchange factor 10-like) | high cell count with doxorubicin only | 2.59 | 1.18
Papss2 (3'-phosphoadenosine 5'-phosphosulfate synthase 2) | no change with or without drug | 0.56 | -0.51
